PubChem BioAssay AID1224830 | NIAID, 2016

Aim: 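Genes whose knock-down alters the TNF-alpha reporter response to LPS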 (primary screen)
Cells: human THP-1 monocytic leukaemia cells, TNF dual-luciferase reporter clone, PMA-differentiated to macrophage-like cells
Knock-down reagent: siRNA pool against human genes, 50 nM
Duration: LPS for 4 h, given about 3 days after siRNA transfection
Treatment: bacterial LPS (TLR4 ligand), 10 ng/ml
Detection: 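Ratio of firefly to renilla light, scaled to the plate median and expressed as a robust z-score per replicate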
Reading the numbers: TNF reporter robust z-score: higher = stronger TNF reporter response to LPS
Call rule: 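a well is active when its z-score exceeds 2.8 or falls below -1.5; control wells carry no call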
The whole screen tested about 18,000 reagents; below is a random part of them. About 2,900 of all reagents (16%) were called active. 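Calls are made per well; low scores hint the gene aids the LPS response, high scores that it dampens it.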 Repeated entries: four replicate wells of each siRNA pool.

gene	TNF reporter robust z-score	Outcome
CASP10	-0.94	inactive
CASP10	0.93	inactive
CASP10	0.82	inactive
CASP10	-0.41	inactive
GJC3	-0.39	inactive
GJC3	0.83	inactive
GJC3	-0.99	inactive
GJC3	-0.22	inactive
GAD2	-0.48	inactive
GAD2	-0.51	inactive
GAD2	-0.72	inactive
GAD2	-0.15	inactive
HSPB3	0.48	inactive
HSPB3	-0.19	inactive
HSPB3	0.83	inactive
HSPB3	0.81	inactive
GARIN4	-0.93	inactive
GARIN4	-0.49	inactive
GARIN4	-0.54	inactive
GARIN4	-0.89	inactive
CACNG6	0.67	inactive
CACNG6	1.62	inactive
CACNG6	0.71	inactive
CACNG6	0.77	inactive
HTRA4	-1.12	inactive
HTRA4	-1.02	inactive
HTRA4	-0.45	inactive
HTRA4	0.8	inactive
ADIRF	-1.55	active
ADIRF	-1.1	inactive
ADIRF	-1.53	active
ADIRF	-1.56	active
SECTM1	-0.57	inactive
SECTM1	-0.64	inactive
SECTM1	-0.66	inactive
SECTM1	-0.65	inactive
SMPD4	-0.44	inactive
SMPD4	-0.6	inactive
SMPD4	-0.01	inactive
SMPD4	0.37	inactive
OR2M7	-0.5	inactive
OR2M7	-0.46	inactive
OR2M7	-0.92	inactive
OR2M7	0.2	inactive
SNRPG	0.67	inactive
SNRPG	0.71	inactive
SNRPG	0.41	inactive
SNRPG	0.42	inactive
STPG2	-0.78	inactive
STPG2	-0.63	inactive
STPG2	-1.48	inactive
STPG2	-0.25	inactive
SLCO1C1	-1.33	inactive
SLCO1C1	-1.37	inactive
SLCO1C1	-1.97	active
SLCO1C1	-0.35	inactive
CLCN7	0.51	inactive
CLCN7	0.18	inactive
CLCN7	0.13	inactive
UBE2B	-0.2	inactive
UBE2B	0.73	inactive
UBE2B	2.26	inactive
UBE2B	0.18	inactive
BAG3	-0.01	inactive
BAG3	0.94	inactive
BAG3	-0.67	inactive
BAG3	-0.74	inactive
WIF1	-0.77	inactive
WIF1	-0.74	inactive
WIF1	0.08	inactive
WIF1	0.18	inactive
CLCNKB	0.03	inactive
CLCNKB	1.13	inactive
CLCNKB	0.41	inactive
FRS3	-0.76	inactive
FRS3	-0.21	inactive
FRS3	-1.07	inactive
FRS3	-0.69	inactive
PKD1L2	-1.01	inactive
PKD1L2	-0.66	inactive
PKD1L2	0.66	inactive
PKD1L2	-0.21	inactive
FBXO32	-0.78	inactive
FBXO32	0.34	inactive
FBXO32	-1.8	active
FBXO32	-0.35	inactive
RAPGEF6	0.57	inactive
RAPGEF6	0.93	inactive
RAPGEF6	0.1	inactive
RAPGEF6	0.6	inactive
SLC4A11	0.51	inactive
SLC4A11	1.5	inactive
SLC4A11	2.48	inactive
SLC4A11	2.9	active
ZC3H12B	-0.45	inactive
ZC3H12B	-0.5	inactive
ZC3H12B	-0.62	inactive
ZC3H12B	-1.14	inactive
ZNF24	-1.72	active
ZNF24	-1.44	inactive
ZNF24	-1.57	active
ZNF24	-0.76	inactive
CD82	-0.52	inactive
CD82	0.92	inactive
CD82	1.32	inactive
CD82	1.23	inactive
MFAP2	0.55	inactive
MFAP2	-0.68	inactive
MFAP2	0.29	inactive
MFAP2	2.49	inactive
PABIR3	-0.12	inactive
PABIR3	-0.47	inactive
PABIR3	0.32	inactive
PABIR3	-0.27	inactive
DMRTC1	-1.58	active
DMRTC1	-1.51	active
DMRTC1	-1.93	active
DMRTC1	-1.31	inactive
SPARC	1.35	inactive
SPARC	0.7	inactive
SPARC	0.32	inactive
SPARC	1.89	inactive
KCNJ12	-0.01	inactive
KCNJ12	-0.55	inactive
KCNJ12	0.48	inactive
KCNJ12	-0.17	inactive
CDCP2	-0.97	inactive
CDCP2	-0.85	inactive
CDCP2	-0.14	inactive
CDCP2	-0.61	inactive
NOVA2	0.09	inactive
NOVA2	1.84	inactive
NOVA2	0.2	inactive
NOVA2	1.03	inactive
MRPS14	0.74	inactive
MRPS14	0.44	inactive
MRPS14	-0.51	inactive
MRPS14	-0.24	inactive
PPP3R2	-0.95	inactive
PPP3R2	-0.5	inactive
PPP3R2	-1.09	inactive
PPP3R2	-1.45	inactive
